Consider two compounds from US20250008983A1, “COMPOSITIONS CONTAINING PEROXYACIDS TO CONTROL PATHOGEN GROWTH IN ANIMAL FEED AND RELATED METHODS” (KEMIN INDUSTRIES, INC., priority 2023, published 2025).

A short description of the series: Corrosivity on stainless steel plates. The settings on record: partially or wholly immersed, as-is or diluted with water; up to 6 months of monitoring.

With `CC(=O)OO` [Peracetic acid, peracetic acid], the “Corrosivity on stainless steel plates” value is reported as “No corrosivity issues were observed”.
To `CCC(=O)OO` [Perpropionic acid, perpropionic acid] belongs “No corrosivity issues were observed”.
